Values quoted from earlier work, collected in patent US20030109571A1, “Thromboxane ligands without blood clotting side effects” (ALLERGAN SALES, INC., priority 1993, published 2003).
Read-outs that look alike come from different tables or passages of the source. For at least one compound, name, drawing or mass did not settle the structure.

How the values were obtained:
platelets = conditions: in words; cited from earlier work
vasculature = conditions: in words; cited from earlier work
rat aorta = conditions: cited from earlier work
[1] = i.v., guinea pig, cited from earlier work
TXA2 receptor = target: T1, TXA2 receptor (Homo sapiens, UniProt P21731); conditions: in words; cited from earlier work
T1 sequence (P21731 1-343): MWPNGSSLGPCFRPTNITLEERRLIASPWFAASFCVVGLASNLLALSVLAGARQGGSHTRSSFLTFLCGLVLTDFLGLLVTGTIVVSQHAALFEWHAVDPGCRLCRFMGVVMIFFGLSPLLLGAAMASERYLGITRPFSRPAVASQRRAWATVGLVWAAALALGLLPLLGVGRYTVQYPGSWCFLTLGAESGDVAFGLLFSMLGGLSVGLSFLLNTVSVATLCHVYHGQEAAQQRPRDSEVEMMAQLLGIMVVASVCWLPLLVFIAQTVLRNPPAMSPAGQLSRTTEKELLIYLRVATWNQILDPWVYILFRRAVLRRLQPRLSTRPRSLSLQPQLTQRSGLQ

rabbit aorta = conditions: cited from earlier work
TX synthetase = target: T2, TX synthetase (Homo sapiens, UniProt P24557); conditions: in words; cited from earlier work
T2 sequence (P24557 1-533): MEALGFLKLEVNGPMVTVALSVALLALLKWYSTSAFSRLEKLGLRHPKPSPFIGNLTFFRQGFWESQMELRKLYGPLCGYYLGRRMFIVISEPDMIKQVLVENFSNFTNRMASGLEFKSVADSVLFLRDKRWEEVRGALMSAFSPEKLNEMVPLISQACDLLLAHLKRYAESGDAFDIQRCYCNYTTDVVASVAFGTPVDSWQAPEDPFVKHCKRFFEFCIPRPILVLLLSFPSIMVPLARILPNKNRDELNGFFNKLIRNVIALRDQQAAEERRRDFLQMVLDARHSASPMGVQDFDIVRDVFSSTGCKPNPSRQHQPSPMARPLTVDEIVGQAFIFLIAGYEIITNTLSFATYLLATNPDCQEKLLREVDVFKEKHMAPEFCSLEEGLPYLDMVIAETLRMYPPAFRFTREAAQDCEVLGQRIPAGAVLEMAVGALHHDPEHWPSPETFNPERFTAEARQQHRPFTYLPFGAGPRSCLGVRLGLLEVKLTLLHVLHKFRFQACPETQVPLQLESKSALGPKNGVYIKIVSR

PGE2 synthetase = conditions: in words; cited from earlier work
platelet aggregation [2] = conditions: cats, i.v. infusion 1-10 μg/kg/min; cited from earlier work
cycloxygenase = conditions: in words; cited from earlier work
platelet aggregation [3] = conditions: guinea pigs, i.v. infusion 1-10 μg/kg/min; cited from earlier work
guinea pig trachea = conditions: in words; cited from earlier work
dog saphenous vein = conditions: in words; cited from earlier work

## CCCCC[C@H](O)/C=C/C1C[C@H]2CC(S2)[C@@H]1C/C=C\CCCC(=O)O (stereo partly shown) [Example 10]
platelets
  Action on platelets: Potent, full TXA2 agonist on platelets and vasculature Caused rapid irreversible aggre-
vasculature
  Action on the vasculature: Potent, full TXA2 agonist on platelets and vasculature Caused rapid irreversible aggre-
Rat aorta; read-out: CD50 constriction of isolated rat aorta
  EC50: 0.4 nM
[1]
  Vasoconstrictor action in vivo: vasoconstrictor

## CCCCCC(O)/C=C/C1O[C@H]2CC(CO2)[C@@H]1C/C=C\CCCC(=O)O (stereo partly shown) [Example 14]
TXA2 receptor
  TXA2-like activity: Weak TXA2 agonist; contraction
Rabbit aorta
  Contraction of rabbit aortic strips relative to TXA2: 0.04 × TXA2
TX synthetase
  Effect on TX (TXA2) synthetase: nor was TXA2 syn- thetase inhibitied

## CCCCCCCCC(O)CNC1C[C@H]2CC([C@@H]1C/C=C\CCCC(=O)O)C2(C)C (stereo partly shown) [Example 9]
PGE2 synthetase
  Effect on PGE2 synthetase: no effect
platelets
  Action on platelets: TXA2 antagonist on platelets and vasculature;
Platelet aggregation [2]
  Ex vivo inhibition of AA or STA2-induced aggregation: ex vivo inhibition
vasculature
  Action on the vasculature: TXA2 antagonist on platelets and vasculature;
cycloxygenase
  Effect on cyclooxygenase: no effect
TX synthetase
  Effect on TX (TXA2) synthetase: no effect
Rat aorta; in vitro, rat aorta
  Inhibition of vasoconstrictor response induced by stable endoperoxide and TXA2 analogs: Inhibited
Platelet aggregation [3]
  Ex vivo inhibition of AA or STA2-induced aggregation: ex vivo inhibition
[1]; in vivo
  Inhibition of vasoconstrictor response induced by stable endoperoxide and TXA2 analogs: Inhibited

## CC1(C)C2C[C@@H]1CC(/C=C/[C@@H](O)COc1ccc(F)cc1)[C@H]2C/C=C\CCCC(=O)O (stereo partly shown) [Example 8]
Guinea pig trachea
  Activity in the guinea pig trachea assay: partial agonist
Dog saphenous vein
  Activity in the dog saphenous vein assay: partial agonist
Rabbit aorta; in words
  Activity in the rabbit aorta assay: partial agonist
